Measurements reported in PubChem BioAssay AID1224830 (NIAID, 2016)

Purpose: 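Regulators of TLR4 signalling towards TNF-alpha in macrophage-like cells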 (primary screen)
System: human THP-1 monocytic leukaemia cells, TNF dual-luciferase reporter clone, PMA-differentiated to macrophage-like cells
Knock-down reagent: siRNA pool against human genes, 50 nM
Duration: LPS for 4 h, given about 3 days after siRNA transfection
Treatment: bacterial LPS (TLR4 ligand), 10 ng/ml
Detection: 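TNF firefly reporter luminescence divided by renilla, normalised to the plate median, then turned into a robust z-score for each replicate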
Reading the numbers: TNF reporter robust z-score: higher = stronger TNF reporter response to LPS
Rule for the call: 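a well is active when its z-score exceeds 2.8 or falls below -1.5; control wells carry no call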
In all, the deposit lists about 18,000 reagents; below is a part drawn at random. About 2,900 of them (16%) count as active. 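Calls are made per well; low scores hint the gene aids the LPS response, high scores that it dampens it.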 Unmarked entries are inactive. Repeated entries: four replicate wells of each siRNA pool. No sequences are given here.

| TNF reporter robust z-score | Target gene |
| --- | --- |
| 1.44 | PTBP3 |
| 3 (active) | PTBP3 |
| 2.38 | PTBP3 |
| 4.04 (active) | PTBP3 |
| 0.5 | GABPB1 |
| 0.28 | GABPB1 |
| 0.62 | GABPB1 |
| 0.07 | GABPB1 |
| 1.06 | GABBR2 |
| 1.18 | GABBR2 |
| 1.62 | GABBR2 |
| 1.58 | GABBR2 |
| -0.59 | SLC35G2 |
| -1.1 | SLC35G2 |
| -1.04 | SLC35G2 |
| 0.49 | SLC35G2 |
| -1.26 | TONSL |
| -0.35 | TONSL |
| -0.51 | TONSL |
| 0.49 | TONSL |
| 1.15 | LAMB4 |
| 1.49 | LAMB4 |
| 1.64 | LAMB4 |
| 2.33 | LAMB4 |
| -1.02 | BAG2 |
| -0.64 | BAG2 |
| -0.68 | BAG2 |
| -0.35 | BAG2 |
| -0.77 | BANF2 |
| -1.41 | BANF2 |
| -0.32 | BANF2 |
| 0.11 | BANF2 |
| 0.57 | GJB6 |
| 0.58 | GJB6 |
| -0.12 | GJB6 |
| 1.92 | GJB6 |
| 4.26 (active) | ARL2 |
| 0.25 | ARL2 |
| 1.04 | ARL2 |
| 0.33 | ARL2 |

5 successive entries from above, for reference:
| TNF reporter robust z-score | Target gene |
| --- | --- |
| -0.32 | BANF2 |
| 0.11 | BANF2 |
| 0.57 | GJB6 |
| 0.58 | GJB6 |
| -0.12 | GJB6 |

The results go on:
| TNF reporter robust z-score | Target gene |
| --- | --- |
| 0.23 | RGP1 |
| 1.18 | RGP1 |
| 0.63 | RGP1 |
| 0.62 | RGP1 |
| 0.18 | SLC29A3 |
| 0.83 | SLC29A3 |
| -0.32 | SLC29A3 |
| -0.78 | SLC29A3 |
| 0.43 | NXPE1 |
| 0.71 | NXPE1 |
| -0.1 | NXPE1 |
| 0.76 | NXPE1 |
| -1.15 | VILL |
| -0.52 | VILL |
| -0.63 | VILL |
| 0.56 | VILL |
| -0.8 | LETM1 |
| -0.58 | LETM1 |
| -0.9 | LETM1 |
| -0.88 | LETM1 |
| 0.61 | UTF1 |
| 1 | UTF1 |
| 2.74 | UTF1 |
| 0.52 | UTF1 |
| -0.24 | ZCCHC14 |
| 1.56 | ZCCHC14 |
| 1.41 | ZCCHC14 |
| 3.39 (active) | ZCCHC14 |
| 0.05 | TFR2 |
| 1.5 | TFR2 |
| 2.86 (active) | TFR2 |
| 1.23 | TFR2 |
| -0.28 | SLC5A3 |
| 0 | SLC5A3 |
| -0.42 | SLC5A3 |
| 0.54 | SLC5A3 |
